For assay [1], the target named is llama/human-IPT chimeric c-Met ECD (Llama glama; human). Briefly: ELISA on chimeric c-Met ECD.
Assay [2] has the same target. The assay can be described thus: ELISA, 200 ng immobilised c-Met protein, mAb titrated. On the technique in general: In an ELISA, binding on a coated surface is turned into a signal by an enzyme label.
Assay [3] concerns the target LP6 (aa497-909) (human; Llama glama). Briefly: SPR, mAb on CM-5 chip, 10 µg/ml c-Met chimera injected.
Assay [4] has as its target Ll10 (aa608-909) (human; Llama glama). The assay is described as above.
The target of assay [5] is Ll11 (aa634-909) (human; Llama glama). The description is as above.
For assay [6], the target named is Ll8 (aa540-909) (human; Llama glama). The assay is described as above.
Assay [7] addresses Ll9 (aa572-909) (human; Llama glama). The description is as above.
The target in assay [8] is LP6 (aa497-909) (human; Llama glama). The assay can be described thus: SPR, mAb on CM-5 chip, c-Met chimera injected.
Assay [9] addresses LS2 (aa1-199) (Llama glama; human). The assay can be described thus: SPR, mAb on CM-5 chip, 10 µg/ml c-Met chimera injected. Background: Surface plasmon resonance follows binding to a sensor surface in real time, without labels.
Assay [10] addresses LS3 (aa1-287) (Llama glama; human). The assay is described as above.
Assay [11] has as its target LS4 (aa1-348) (Llama glama; human). The description is as above.
Assay [12] deals with LS5 (aa1-448) (Llama glama; human). The description is as above.
In assay [13] the target is LP6 (aa497-909) (human; Llama glama). The assay can be described thus: ELISA, mAb immobilised, c-Met chimera added, streptavidin-HRP.

These results are taken from US20180215833A1 (published 2018).

Results are given in words; binding and its absence hold for the method and conditions named. For some assays here: Binding can be weak; no strength is given.

B1: 13E6 (antibody, V domains shown)
VH: QVQLQESGGDLVQPGGSLRLSCAASGFTFDDYVMNWVRQAPGKGLEWISAINWNGGSTYYAESMKGRFTISRDNAKNTLYLQMYSLQSDDTAVYYCVKDTVVSGNGYWGQGTQVTVSS
VL: QSVLTQPPSVSGTLGKTVTISCAGTSSDIGDYNYVSWYQQLPGTAPKLLIYDVNKRASGIPDRFSGSKSGNTASLSISGLQSEDEADYYCASYRSRNDYAFGGGTKLTVL
notes: also called mAb 13E6
For the molecule B1, the binding result in assay [1] and in assay [2] was “binds” in each case.

B2: 36C4 (antibody, V domains shown)
VH: QVQLVESGPGLVKPSQTLSLTCAVSGGSITTNYYYWSWIRQSPGKGLEWMGVIAYDGSTDYSPSLKSRTSISRDTSKNQFSLQLSSVTPEDTAVYYCARDVRVIATGWATANALDAWGQGTLVTVSS
VL: QSVLTQPPSVSGSPGKTVTISCAGTSSDVGYGNYVSWYQQLPGTAPKLLIFAVSYRASGIPDRFSGSKSGNTAFLTISGLQSEDEADYYCASYRSSNNAAVFGGGTHLTVL
notes: also called mAb 36C4; SIMPLE antibody 36C4
Turning to B2, the binding result in assay [3], in [4], in assay [5], in assay [6] and in assay [7] was “binds” throughout.

B3: 48A2 (antibody, V domains shown)
VH: EVQLVQPGVELRNPGASVKVSCKASGYIFTMNSIDWVRQAPGQGLEWMGRIDPEDGGTKYAQKFQGRVTFTADTSTSTAYVELNSLRSEDTAVYYCARVDDYYLGYDYWGQGTQVTVSS
VL: DIVMTQTPTSVTASAGDKVTINCKSSQSVLFSSNQKNYLAWYQQRLGQSPRLLIYWASIRESGVPDRFSGSGSATDFTLTISNFQPEDAAVYYCQQGYSFPYSFGSGTRLEIR
Take B3: the binding result in assay [8] is listed as “no binding (tested: 10 µg/ml chimera)”; in assay [9], “binds”; in assay [10], “binds”; in assay [11] it was “binds”; in assay [12], “binds”; in assay [5] it was “binds”. For the same molecule, the binding entry in assay [13] is on record as “no binding”.
